In US20230234996A1, “PI3K GAMMA INHIBITOR PEPTIDE FOR TREATMENT OF FIBROPROLIFERATIVE VASCULAR DISEASES” (Kither Biotech S.r.l., priority 2020, published 2023):

System: primary VSMC
Assay: Time course of peptide penetration in VSMC (FITC fluorescence)
Assay type: cell-based, mouse
Conditions: FITC-tagged version of the peptide
Experimental: A. Schematic representation of the cell-permeable PI3Kγ competing peptide. The 126-150 region of PI3Kγ was fused to the cell-penetrating peptide Penetratin 1 (P1). A control peptide was generated by insertion of two point mutations (K>A and R>A at position 1 and 5 of the PI3Kγ sequence, respectively). B. RAW macrophages were pre-treated with vehicle, the PI3Kγ peptide (10 μM) or the PI3Kγ kinase inhibitor AS605240 (1 μM) for 1 hour and then with C5a (50 μM) for 5 minutes. Representative Western blot images of phospho-AKT (Ser-473) and total AKT (left) and ratio quantification (right) are shown. GAPDH was used as loading control. n=3. C. Incorporation by primary VSMC of a FITC-labelled PI3Kγ peptide at 1 h, 5 h, 24 h and 30 h after incubation. D. Quantification of FITC-associated fluorescence intensity inside VSMC area.

## RQIKIWFQNRRMKWKKGKATHRSPGQIHLVQRHPPSEESQAF (KIT2014) [PI3Kγ peptide, The 126-150 region of PI3Kγ fused to the cell-penetrating peptide Penetratin 1 (P1)]
  time after incubation at which peptide was still detectable: 30 h
  time after which peptide was detectable in cells: 5 h
